In article PMC3637499 one finds binding data, which are given here for 1 molecule.

The test has as its target Lnk-CFP (Drosophila). The test can be described thus: FRET or BRET; sensitised emission FRET, negative controls with Delta-RFP as acceptor in fixed larval salivary glands; insulin condition not stated; absence of FRET yields values <3%. A general note: Bioluminescence resonance energy transfer reports proximity on the nanometre scale.

These are yes or no findings as the source states them, for the method shown. Binding seen in cells or lysates may run through a third protein.

B1: Delta-RFP (protein, UniProt P10041 19-833)
chain: QVHSSGSFELRLKYFSNDHGRDNEGRCCSGESDGATGKCLGSCKTRFRVCLKHYQATIDTTSQCTYGDVITPILGENSVNLTDAQRFQNKGFTNPIQFPFSFSWPGTFSLIVEAWHDTNNSGNARTNKLLIQRLLVQQVLEVSSEWKTNKSESQYTSLEYDFRVTCDLNYYGSGCAKFCRPRDDSFGHSTCSETGEIICLTGWQGDYCHIPKCAKGCEHGHCDKPNQCVCQLGWKGALCNECVLEPNCIHGTCNKPWTCICNEGWGGLYCNQDLNYCTNHRPCKNGGTCFNTGEGLYTCKCAPGYSGDDCENEIYSCDADVNPCQNGGTCIDEPHTKTGYKCHCANGWSGKMCEEKVLTCSDKPCHQGICRNVRPGLGSKGQGYQCECPIGYSGPNCDLQLDNCSPNPCINGGSCQPSGKCICPAGFSGTRCETNIDDCLGHQCENGGTCIDMVNQYRCQCVPGFHGTHCSSKVDLCLIRPCANGGTCLNLNNDYQCTCRAGFTGKDCSVDIDECSSGPCHNGGTCMNRVNSFECVCANGFRGKQCDEESYDSVTFDAHQYGATTQARADGLTNAQVVLIAVFSVAMPLVAVIAACVVFCMKRKRKRAQEKDDAEARKQNEQNAVATMHHNGSGVGVALASASLGGKTGSNSGLTFDGGNPNIIKNTWDKSVNNICASAAAAAAAAAAADECLMYGGYVASVADNNNANSDFCVAPLQRAKSQKQLNTDPTLMHRGSPAGSSAKGASGGGPGAAEGKRISVLGEGSYCSQRWPSLAAAGVAGACSSQLMAAASVAGSGAGTAQQQRSVVCGTPHM
Regarding B1, the binding result is reported as “no binding (tested: FRETeff < 3%)”.
